From paper PMC11111636 (EJNMMI Radiopharmacy and Chemistry, 2024) come the findings set out here.

This data set can be described thus: general procedure: Fmoc solid-phase peptide synthesis; 2-chlorotrityl chloride resin; HATU, DIPEA.

Take “N3-Py-DOTAGA-D-Phe-cyclo[Cys-Tyr-D-Trp-Lys-Thr-Cys]-Thr-OH”: where the note is “cyclisation step, on linear peptide 9”, the cyclisation yield came to 63%. With “N3-Py-DOTAGA-D-Phe-Cys-Tyr-D-Trp-Lys-Thr-Cys-Thr-OH”, the isolated yield (whole synthesis) was determined as 6%.
